According to publication PMC7864075:
Results are given in words; binding and its absence hold for the method and conditions named. In cells and extracts the contact can be indirect. Some binding calls cover weakened binding; strength is not graded here.

Protein sequences, listed by entry. Tags and fused reporters are not part of them.
UniProt Q9NQB0: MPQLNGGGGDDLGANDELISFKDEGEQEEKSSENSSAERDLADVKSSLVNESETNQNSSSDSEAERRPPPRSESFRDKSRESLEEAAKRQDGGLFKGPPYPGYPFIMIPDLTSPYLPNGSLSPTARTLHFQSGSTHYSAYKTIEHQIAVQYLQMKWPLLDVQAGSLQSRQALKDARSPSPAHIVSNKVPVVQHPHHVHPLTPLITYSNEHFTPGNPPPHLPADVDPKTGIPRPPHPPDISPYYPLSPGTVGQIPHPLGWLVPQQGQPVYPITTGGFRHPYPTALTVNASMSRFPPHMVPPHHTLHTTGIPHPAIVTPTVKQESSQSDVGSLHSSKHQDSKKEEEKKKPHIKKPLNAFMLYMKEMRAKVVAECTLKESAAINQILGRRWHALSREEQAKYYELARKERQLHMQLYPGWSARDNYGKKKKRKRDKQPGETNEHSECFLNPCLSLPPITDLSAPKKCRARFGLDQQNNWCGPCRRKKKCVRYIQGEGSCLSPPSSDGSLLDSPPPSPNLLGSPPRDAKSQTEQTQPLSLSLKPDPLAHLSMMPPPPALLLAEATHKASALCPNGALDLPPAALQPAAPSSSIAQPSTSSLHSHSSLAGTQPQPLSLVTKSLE
UniProt P61758: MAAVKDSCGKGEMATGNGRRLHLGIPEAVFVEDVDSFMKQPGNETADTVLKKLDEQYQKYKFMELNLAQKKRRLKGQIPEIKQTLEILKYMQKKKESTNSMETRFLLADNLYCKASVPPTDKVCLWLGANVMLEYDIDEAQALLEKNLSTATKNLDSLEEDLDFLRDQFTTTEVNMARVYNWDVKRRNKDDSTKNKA
UniProt P40337: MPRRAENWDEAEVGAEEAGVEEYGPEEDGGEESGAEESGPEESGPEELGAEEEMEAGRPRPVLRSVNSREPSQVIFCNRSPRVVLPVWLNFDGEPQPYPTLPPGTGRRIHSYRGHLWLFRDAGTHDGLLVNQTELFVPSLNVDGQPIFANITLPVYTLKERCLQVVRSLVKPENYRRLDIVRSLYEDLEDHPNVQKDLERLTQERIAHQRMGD

Legend:
[1] = molecular target: HA-tagged TCF7L2 (WT) (human) (UniProt Q9NQB0); experiment: co-IP; HEK293T cells cotransfected with HA-tagged TCF7L2 or its deletion mutants and FLAG-VBP1; cell lysates subjected to co-immunoprecipitation; the precipitating antibody is not told
GST-VBP1 (human) = GST-VBP1 (human) (UniProt P61758); experiment: pull-down; GST-VBP1 from bacteria held on GSH Sepharose 4B beads, incubated 2 h at 4 °C with lysates of nontransfected HEK293T cells or of HEK293T cells transfected with Myc-Tcf/Lefs or FLAG-pVHL; 50 mM Tris pH 7.5, 150 mM NaCl, 1 mM EDTA, 10% glycerol, 1% Triton X-100; only the target purified
[2] = molecular target: FLAG-tagged VBP1 (pVHL binding protein 1) (human) (UniProt P61758); experiment: co-IP; HEK293T cells transfected with FLAG-VBP1; after 48 h extracts immunoprecipitated with anti-FLAG antibody, endogenous partners detected by Western blot; IP lysis buffer 50 mM Tris pH 7.5, 150 mM NaCl, 1 mM EDTA, 10% glycerol, 1% Triton X-100
[3] = molecular target: endogenous TCF7L2 (human (endogenous in HEK293T and HCT116)) (UniProt Q9NQB0); experiment: co-IP; endogenous proteins; extracts of HEK293T cells (control, FLAG-VBP1 overexpression or VBP1 shRNA knockdown) and HCT116 cells (control or VBP1 knockdown) immunoprecipitated with anti-TCF7L2 antibody, Western blot

Substance	binding [1]	binding (GST-VBP1 (human))	binding [2]	binding [3]
FLAG-tagged VBP1 (pVHL binding protein 1) (from UniProt P61758 1-197)	binds	–	–	–
FLAG-tagged pVHL (from UniProt P40337 1-213)	–	binds	–	–
endogenous TCF7L2 (from UniProt Q9NQB0 1-619)	–	binds	binds	–
endogenous von Hippel-Lindau tumor-suppressor protein (pVHL) (from UniProt P40337 1-213)	–	–	binds	binds
